Laboratory results: PubChem BioAssay AID1224828 (NIAID, 2016)
Here is a random part of about 17,000 reagents. 762 of all reagents (4.5%) count as active. 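Active calls include both raised and lowered p65 entry, mostly lowered; wells with fewer than 50 cells lack a z-score.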 Raw values vary from plate to plate and are shown uncorrected.

- Test: 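Regulators linking TLR4 signalling to p65 nuclear translocation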 (primary screen)
- System: mouse RAW264.7 G9 macrophage reporter cells (GFP-p65, Tnf promoter-mCherry)
- Reagents: siRNA pool against mouse genes, 100 nM
- Time to read-out: 2 days siRNA transfection, then 40 min LPS before fixation
- Challenge: LPS (Salmonella minnesota R595) at 10 ng/ml
- Read-out: 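Imaged p65 nuclear translocation ratio, normalised to the plate median, converted to robust z-scores and averaged across two replicates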
- Direction: p65 translocation robust z-score: higher = more nuclear NF-kappaB p65 after LPS than the plate median; nuclear/cytoplasmic p65 ratio: higher = more nuclear NF-kappaB p65
- Call rule: 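Called active when z exceeds 3.3 or falls under -1.56 (median of Tlr4 controls), giving activity score of at least 50; no calls for control wells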
- Calls: active = hit (p65 shift raised or lowered); inactive = no clear change

gene symbol	PubChem SID	p65 translocation robust z-score	nuclear/cytoplasmic p65 ratio, rep 1	nuclear/cytoplasmic p65 ratio, rep 2	low cell count flag	activity call
Igsf5 (immunoglobulin superfamily, member 5)	SID315474440	0.27	1.61	1.45	enough cells to score	inactive
Zfp740 (zinc finger protein 740)	SID315473624		1.13	1.18	fewer than 50 cells per well; well left out of scoring	inactive
Cyb5r3 (cytochrome b5 reductase 3)	SID315476843	0.71	1.59	1.45	enough cells to score	inactive
Slco3a1	SID315476698		1.38	1.27	fewer than 50 cells per well; well left out of scoring	inactive
Tgfbrap1	SID315474676	1.25	1.64	1.95	enough cells to score	inactive
Eif1a (eukaryotic translation initiation factor 1A)	SID315466468	-0.41	1.4	1.32	enough cells to score	inactive
Rab26 (RAB26, member RAS oncogene family)	SID315481492	1.6	1.76	1.6	enough cells to score	inactive
Pank3 (pantothenate kinase 3)	SID315477678	-0.73	1.73	1.28	enough cells to score	inactive
Sdr16c5 (short chain dehydrogenase/reductase family 16C, member 5)	SID315479604	0.41	1.46	1.27	enough cells to score	inactive
Or6b1 (olfactory receptor family 6 subfamily B member 1)	SID315480669		1.39	1.08	fewer than 50 cells per well; well left out of scoring	inactive
Rmi1 (RecQ mediated genome instability 1)	SID315474960	1.25	1.41	1.45	enough cells to score	inactive
Cdkn1c (cyclin dependent kinase inhibitor 1C)	SID315465915	0	1.62	1.44	enough cells to score	inactive
Or8b12i (olfactory receptor family 8 subfamily B member 12I)	SID315471726	0.23	1.43	1.34	enough cells to score	inactive
Smug1	SID315474296		1.17	1.07	fewer than 50 cells per well; well left out of scoring	inactive
Purb (purine rich element binding protein B)	SID315468830	-1.17	1.21	1.1	enough cells to score	inactive
Or51a10 (olfactory receptor family 51 subfamily A member 10)	SID315480017	2.96	1.84	1.66	enough cells to score	inactive
Or52m2 (olfactory receptor family 52 subfamily M member 2)	SID315479093	1.4	1.41	1.43	enough cells to score	inactive
Arl6ip1 (ADP-ribosylation factor-like 6 interacting protein 1)	SID315471184	1.7	1.94	1.6	enough cells to score	inactive
Acadl (acyl-Coenzyme A dehydrogenase, long-chain)	SID315465238	0.72	1.73	1.71	enough cells to score	inactive
Gstm2 (glutathione S-transferase, mu 2)	SID315467059	-0.26	1.38	1.36	enough cells to score	inactive
Klhl10 (kelch-like 10)	SID315472606	1.58	1.79	1.63	enough cells to score	inactive
Krt72 (keratin 72)	SID315476519	-0.18	1.55	1.68	enough cells to score	inactive
Nfrkb (nuclear factor related to kappa B binding protein)	SID315479230	0.65	1.8	1.62	enough cells to score	inactive
Gpalpp1 (GPALPP motifs containing 1)	SID315473046		1.55	1.49	fewer than 50 cells per well; well left out of scoring	inactive
Dffb (DNA fragmentation factor, beta subunit)	SID315466325	0.15	1.61	1.3	enough cells to score	inactive

5 of these entries, set out differently.
Zfp740 (zinc finger protein 740) [SID315473624]
- nuclear/cytoplasmic p65 ratio, rep 1: 1.13
- nuclear/cytoplasmic p65 ratio, rep 2: 1.18
- low cell count flag: fewer than 50 cells per well; well left out of scoring
- activity call: inactive

Cyb5r3 (cytochrome b5 reductase 3) [SID315476843]
- p65 translocation robust z-score: 0.71
- nuclear/cytoplasmic p65 ratio, rep 1: 1.59
- nuclear/cytoplasmic p65 ratio, rep 2: 1.45
- low cell count flag: enough cells to score
- activity call: inactive

Slco3a1 [SID315476698]
- nuclear/cytoplasmic p65 ratio, rep 1: 1.38
- nuclear/cytoplasmic p65 ratio, rep 2: 1.27
- low cell count flag: fewer than 50 cells per well; well left out of scoring
- activity call: inactive

Tgfbrap1 [SID315474676]
- p65 translocation robust z-score: 1.25
- nuclear/cytoplasmic p65 ratio, rep 1: 1.64
- nuclear/cytoplasmic p65 ratio, rep 2: 1.95
- low cell count flag: enough cells to score
- activity call: inactive

Eif1a (eukaryotic translation initiation factor 1A) [SID315466468]
- p65 translocation robust z-score: -0.41
- nuclear/cytoplasmic p65 ratio, rep 1: 1.4
- nuclear/cytoplasmic p65 ratio, rep 2: 1.32
- low cell count flag: enough cells to score
- activity call: inactive

Additional records follow.
gene symbol	PubChem SID	p65 translocation robust z-score	nuclear/cytoplasmic p65 ratio, rep 1	nuclear/cytoplasmic p65 ratio, rep 2	low cell count flag	activity call
Unc80 (unc-80, NALCN activator)	SID315479545	2.38	1.78	1.83	enough cells to score	inactive
Nrros (negative regulator of reactive oxygen species)	SID315478323		1.31	1.12	fewer than 50 cells per well; well left out of scoring	inactive
Svbp (small vasohibin binding protein)	SID315473755	0.48	1.4	1.59	enough cells to score	inactive
Gap43 (growth associated protein 43)	SID315466826	-0.94	1.57	1.24	enough cells to score	inactive
Wdfy3 (WD repeat and FYVE domain containing 3)	SID315474472	0.52	1.54	1.26	enough cells to score	inactive
Pmfbp1 (polyamine modulated factor 1 binding protein 1)	SID315471590		1.23	1.14	fewer than 50 cells per well; well left out of scoring	inactive
Glra2 (glycine receptor, alpha 2 subunit)	SID315479331	1.44	1.53	1.65	enough cells to score	inactive
Or2y14 (olfactory receptor family 2 subfamily Y member 14)	SID315480144	-0.72	1.5	1.2	enough cells to score	inactive
Scd1 (stearoyl-Coenzyme A desaturase 1)	SID315469106	0.28	1.36	1.74	enough cells to score	inactive
Arhgef38 (Rho guanine nucleotide exchange factor 38)	SID315475497	0.53	1.73	1.66	enough cells to score	inactive
Tceal1 (transcription elongation factor A (SII)-like 1)	SID315479324	-0.59	1.32	1.1	enough cells to score	inactive
Cd1d2 (CD1d2 antigen)	SID315465841	0.47	1.52	1.45	enough cells to score	inactive
Pla2g1b (phospholipase A2, group IB, pancreas)	SID315468559	-1.2	1.3	1.28	enough cells to score	inactive
Mapk9 (mitogen-activated protein kinase 9)	SID315470396	-0.7	1.74	1.29	enough cells to score	inactive
Map2k3os (mitogen-activated protein kinase kinase 3, opposite strand)	SID315470317	-1.7	1.15	1.31	enough cells to score	active
